Data on 2 molecules can be found in paper doi:10.1101/2020.08.10.245050.

These are yes or no findings as the source states them, for the method shown.

Assay [1] addresses ACR4^WD40, isolated β-propeller (WD40) domain of ACR4 (residues 1 - 334) (Arabidopsis thaliana) (UniProt Q9LX29). Nature of the assay: SEC. A general note: In gel filtration, larger molecules generally elute earlier.
The target in assay [2] is ACR4^WD40-CRD ectodomain (residues 1 - 423) (Arabidopsis thaliana) (UniProt Q9LX29). Put plainly: SEC.

B1: ACR4^WD40, isolated β-propeller (WD40) domain of ACR4 (residues 1 - 334) (domain or fragment, UniProt Q9LX29 30-334)
chain: LGSMSSIAISYGEGGSVFCGLKSDGSHLVVCYGSNSAILYGTPGHLQFIGLTGGDGFMCGLLMLSHQPYCWGNSAFIQMGVPQPMTKGAEYLEVSAGDYHLCGLRKPIVGRRKNSNIISSSLVDCWGYNMTRNFVFDKQLHSLSAGSEFNCALSSKDKSVFCWGDENSSQVISLIPKEKKFQKIAAGGYHVCGILDGLESRVLCWGKSLEFEEEVTGTSTEEKILDLPPKEPLLAVVGGKFYACGIKRYDHSAVCWGFFVNRSTPAPTGIGFYDLAAGNYFTCGVLTGTSMSPVCWGLGFPASIP
Take B1: in assay [1], the binding result was “no binding”.

B2: ACR4^WD40-CRD ectodomain (residues 1 - 423) (domain or fragment, UniProt Q9LX29 30-423)
chain: LGSMSSIAISYGEGGSVFCGLKSDGSHLVVCYGSNSAILYGTPGHLQFIGLTGGDGFMCGLLMLSHQPYCWGNSAFIQMGVPQPMTKGAEYLEVSAGDYHLCGLRKPIVGRRKNSNIISSSLVDCWGYNMTRNFVFDKQLHSLSAGSEFNCALSSKDKSVFCWGDENSSQVISLIPKEKKFQKIAAGGYHVCGILDGLESRVLCWGKSLEFEEEVTGTSTEEKILDLPPKEPLLAVVGGKFYACGIKRYDHSAVCWGFFVNRSTPAPTGIGFYDLAAGNYFTCGVLTGTSMSPVCWGLGFPASIPLAVSPGLCIDTPCPPGTHELSNQENSPCKFTGSHICLPCSTSCPPGMYQKSVCTERSDQVCVYNCSSCSSHDCSSNCSSSATSGGKEKG
With B2, the binding result in assay [2] was “no binding”.
